Measurements published in patent publication US20200132665A1, “Method for in vitro detection of the proarrhythmogenic risk of a drug candidate on human induced pluripotent stem cell-derived cardiomyocytes (hiPSC-CM)” (priority 2018, published 2020).

System: Cor.4U® cardiomyocyte (hiPSC-CM)
Conditions: nifedipine 1 μM, current-clamp at 1-min intervals over 10 min, Cor.4U cardiomyocyte (FIG. 14 dotted trace)

COC(=O)C1=C(C)NC(C)=C(C(=O)OC)C1c1ccccc1[N+](=O)[O-] [nifedipine]
effect on AP plateau (AP shape): disappearance of the AP plateau
